Assay results reported in patent US20130171061A1.
These are yes or no findings as the source states them, for the method shown. Binding can be weak; no strength is given.

B1: VHA3 anti-human transferrin receptor domain antibody (VHH)
VHH: QVQLLESGGGLVQPGGSLRLSCAASGFIFNTEYMAWVRQAPGKGLEWVSAIKEQSGSTYYADSVKGRFTISRDNSKNTLYLQMNSLRAEDTAVYYCAAQMHHEAEVKFWGQGTLVTVSS
B2: VHD4 anti-human transferrin receptor domain antibody (VHH)
VHH: QVQLLESGGGLVQPGGSLRLSCAASGFKFSAEYMSWVRQAPGKGLEWVSTIKMNNGSTYYADSVKGRFTISRDNSKHTLYLQMNSLRAEDTAVYYCARPMAWRGNVVRAENLRFWGQGTLVTVSS

Molecular target: Human transferrin receptor (purified, SCIPAC Ltd.) (human) (UniProt P02786)
Experiment: monoclonal phage ELISA on coated human transferrin receptor

Binder	binding
B1	binds
B2	binds
